Test results: the supplement of paper PMC10849652
The list shows a part of the results.

Sequences of proteins named here, by UniProt entry; tags and fusion partners are left off. A change or cut given only in a name is not applied to a line headed by its entry.
UniProt P22087: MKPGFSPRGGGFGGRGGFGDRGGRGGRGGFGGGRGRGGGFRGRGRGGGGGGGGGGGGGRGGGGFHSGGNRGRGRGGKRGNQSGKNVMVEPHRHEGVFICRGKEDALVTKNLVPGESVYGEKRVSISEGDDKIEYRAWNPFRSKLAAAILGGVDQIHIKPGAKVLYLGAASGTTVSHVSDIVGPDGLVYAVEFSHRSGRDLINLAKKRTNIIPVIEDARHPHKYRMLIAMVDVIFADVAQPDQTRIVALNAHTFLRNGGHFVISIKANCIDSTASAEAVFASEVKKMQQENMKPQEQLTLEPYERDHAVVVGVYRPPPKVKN
UniProt Q8NEZ5: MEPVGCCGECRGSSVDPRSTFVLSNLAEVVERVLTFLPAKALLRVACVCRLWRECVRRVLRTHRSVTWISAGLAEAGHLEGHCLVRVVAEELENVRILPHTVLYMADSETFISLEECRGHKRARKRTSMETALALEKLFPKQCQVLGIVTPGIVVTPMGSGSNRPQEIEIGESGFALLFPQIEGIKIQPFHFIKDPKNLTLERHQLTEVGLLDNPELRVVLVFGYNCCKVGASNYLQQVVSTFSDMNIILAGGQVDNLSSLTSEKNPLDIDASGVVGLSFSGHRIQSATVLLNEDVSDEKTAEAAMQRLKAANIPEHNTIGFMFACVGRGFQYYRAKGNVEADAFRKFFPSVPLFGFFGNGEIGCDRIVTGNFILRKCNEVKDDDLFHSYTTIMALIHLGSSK
UniProt Q6PIW4: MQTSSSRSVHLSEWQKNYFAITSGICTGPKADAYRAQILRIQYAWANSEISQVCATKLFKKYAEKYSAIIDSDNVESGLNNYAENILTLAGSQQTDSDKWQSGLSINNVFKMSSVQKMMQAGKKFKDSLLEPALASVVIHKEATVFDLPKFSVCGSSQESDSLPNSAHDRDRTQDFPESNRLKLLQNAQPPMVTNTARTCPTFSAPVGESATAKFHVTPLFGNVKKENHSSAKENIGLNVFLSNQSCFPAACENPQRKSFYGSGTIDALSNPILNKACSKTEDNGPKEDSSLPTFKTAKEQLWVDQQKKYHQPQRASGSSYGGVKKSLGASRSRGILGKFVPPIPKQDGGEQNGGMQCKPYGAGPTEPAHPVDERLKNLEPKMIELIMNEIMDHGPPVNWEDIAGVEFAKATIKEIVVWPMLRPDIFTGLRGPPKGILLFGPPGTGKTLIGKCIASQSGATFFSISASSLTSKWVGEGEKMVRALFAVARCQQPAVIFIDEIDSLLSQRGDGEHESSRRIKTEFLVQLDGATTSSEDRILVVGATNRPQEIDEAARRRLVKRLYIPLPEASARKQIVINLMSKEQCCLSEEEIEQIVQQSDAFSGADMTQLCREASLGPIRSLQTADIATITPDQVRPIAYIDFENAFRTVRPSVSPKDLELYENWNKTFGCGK
UniProt Q9Y5Y0: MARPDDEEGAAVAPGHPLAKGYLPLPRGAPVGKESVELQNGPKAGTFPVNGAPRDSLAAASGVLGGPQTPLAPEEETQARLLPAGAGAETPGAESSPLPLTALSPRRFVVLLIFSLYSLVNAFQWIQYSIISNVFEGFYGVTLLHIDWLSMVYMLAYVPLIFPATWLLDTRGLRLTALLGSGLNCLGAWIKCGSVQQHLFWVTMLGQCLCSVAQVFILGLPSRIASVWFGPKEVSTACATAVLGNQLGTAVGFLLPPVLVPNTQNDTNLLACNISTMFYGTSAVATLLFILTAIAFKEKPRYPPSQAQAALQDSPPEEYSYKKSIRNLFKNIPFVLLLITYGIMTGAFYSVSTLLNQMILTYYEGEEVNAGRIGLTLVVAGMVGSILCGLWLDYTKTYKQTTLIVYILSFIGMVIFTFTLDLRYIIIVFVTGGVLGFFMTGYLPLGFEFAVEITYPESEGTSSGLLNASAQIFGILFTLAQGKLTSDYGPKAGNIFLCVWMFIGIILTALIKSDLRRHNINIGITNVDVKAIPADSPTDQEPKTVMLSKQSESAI
UniProt P10109: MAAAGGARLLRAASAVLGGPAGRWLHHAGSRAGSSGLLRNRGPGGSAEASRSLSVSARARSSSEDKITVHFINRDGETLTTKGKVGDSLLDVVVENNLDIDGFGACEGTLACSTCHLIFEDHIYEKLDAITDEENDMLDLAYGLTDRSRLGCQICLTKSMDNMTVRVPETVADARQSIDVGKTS
UniProt Q96CD0: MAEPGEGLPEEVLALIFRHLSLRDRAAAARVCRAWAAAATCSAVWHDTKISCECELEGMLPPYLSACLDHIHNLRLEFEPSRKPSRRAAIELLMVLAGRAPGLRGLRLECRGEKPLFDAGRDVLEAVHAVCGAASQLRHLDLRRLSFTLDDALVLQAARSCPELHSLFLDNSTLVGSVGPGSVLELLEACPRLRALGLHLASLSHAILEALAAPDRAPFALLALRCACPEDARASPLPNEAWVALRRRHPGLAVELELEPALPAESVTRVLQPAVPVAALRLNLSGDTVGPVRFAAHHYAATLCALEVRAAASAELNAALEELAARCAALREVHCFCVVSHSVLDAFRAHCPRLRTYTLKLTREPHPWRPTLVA
UniProt Q0JRZ9: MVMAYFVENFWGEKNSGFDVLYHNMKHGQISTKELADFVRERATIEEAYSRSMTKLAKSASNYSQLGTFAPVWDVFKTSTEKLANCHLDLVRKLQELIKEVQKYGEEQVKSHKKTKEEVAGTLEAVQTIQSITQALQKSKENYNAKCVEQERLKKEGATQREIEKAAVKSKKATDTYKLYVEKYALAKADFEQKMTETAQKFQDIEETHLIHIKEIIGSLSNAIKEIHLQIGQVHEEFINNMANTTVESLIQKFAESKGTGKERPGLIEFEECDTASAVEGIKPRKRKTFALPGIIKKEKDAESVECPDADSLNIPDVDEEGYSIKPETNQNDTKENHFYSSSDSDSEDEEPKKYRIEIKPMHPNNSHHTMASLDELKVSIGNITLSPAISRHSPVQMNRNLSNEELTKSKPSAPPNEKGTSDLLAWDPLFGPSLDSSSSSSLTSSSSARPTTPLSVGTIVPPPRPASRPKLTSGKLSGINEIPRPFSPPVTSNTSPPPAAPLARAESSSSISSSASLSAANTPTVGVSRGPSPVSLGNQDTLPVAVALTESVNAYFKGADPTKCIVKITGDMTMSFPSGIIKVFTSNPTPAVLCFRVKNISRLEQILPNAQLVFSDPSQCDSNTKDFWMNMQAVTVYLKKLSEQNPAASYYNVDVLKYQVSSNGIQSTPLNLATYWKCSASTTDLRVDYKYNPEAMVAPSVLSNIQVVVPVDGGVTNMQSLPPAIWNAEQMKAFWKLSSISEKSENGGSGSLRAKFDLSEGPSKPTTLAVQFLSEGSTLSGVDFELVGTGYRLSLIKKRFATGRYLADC
UniProt Q9Y613: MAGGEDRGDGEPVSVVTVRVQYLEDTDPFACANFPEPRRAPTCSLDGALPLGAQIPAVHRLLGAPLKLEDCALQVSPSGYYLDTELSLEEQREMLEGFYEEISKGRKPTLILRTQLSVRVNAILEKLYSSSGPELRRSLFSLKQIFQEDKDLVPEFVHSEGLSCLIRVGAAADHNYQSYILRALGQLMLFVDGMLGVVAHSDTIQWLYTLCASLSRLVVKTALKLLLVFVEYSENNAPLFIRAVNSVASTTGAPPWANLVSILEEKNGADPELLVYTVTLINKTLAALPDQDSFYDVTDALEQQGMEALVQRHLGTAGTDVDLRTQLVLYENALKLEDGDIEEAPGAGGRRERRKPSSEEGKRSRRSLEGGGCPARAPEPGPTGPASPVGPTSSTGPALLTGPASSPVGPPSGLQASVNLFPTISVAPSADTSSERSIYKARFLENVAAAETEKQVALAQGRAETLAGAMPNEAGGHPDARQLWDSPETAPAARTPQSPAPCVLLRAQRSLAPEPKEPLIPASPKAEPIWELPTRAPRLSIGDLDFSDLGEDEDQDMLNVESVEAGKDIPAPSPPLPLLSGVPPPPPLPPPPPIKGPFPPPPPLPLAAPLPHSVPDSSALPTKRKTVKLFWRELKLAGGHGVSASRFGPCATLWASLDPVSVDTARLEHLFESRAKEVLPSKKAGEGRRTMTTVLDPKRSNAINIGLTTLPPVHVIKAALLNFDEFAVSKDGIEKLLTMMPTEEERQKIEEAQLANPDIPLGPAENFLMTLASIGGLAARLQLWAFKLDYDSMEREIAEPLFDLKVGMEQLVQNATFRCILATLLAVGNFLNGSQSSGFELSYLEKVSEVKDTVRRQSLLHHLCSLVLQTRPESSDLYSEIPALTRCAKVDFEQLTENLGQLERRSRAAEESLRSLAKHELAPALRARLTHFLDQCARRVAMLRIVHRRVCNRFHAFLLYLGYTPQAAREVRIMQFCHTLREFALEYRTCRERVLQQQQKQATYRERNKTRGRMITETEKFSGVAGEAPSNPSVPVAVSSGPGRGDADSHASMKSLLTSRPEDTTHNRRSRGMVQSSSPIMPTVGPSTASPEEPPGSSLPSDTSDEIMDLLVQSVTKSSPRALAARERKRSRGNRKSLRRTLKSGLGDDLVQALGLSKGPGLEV
UniProt Q6P3S6: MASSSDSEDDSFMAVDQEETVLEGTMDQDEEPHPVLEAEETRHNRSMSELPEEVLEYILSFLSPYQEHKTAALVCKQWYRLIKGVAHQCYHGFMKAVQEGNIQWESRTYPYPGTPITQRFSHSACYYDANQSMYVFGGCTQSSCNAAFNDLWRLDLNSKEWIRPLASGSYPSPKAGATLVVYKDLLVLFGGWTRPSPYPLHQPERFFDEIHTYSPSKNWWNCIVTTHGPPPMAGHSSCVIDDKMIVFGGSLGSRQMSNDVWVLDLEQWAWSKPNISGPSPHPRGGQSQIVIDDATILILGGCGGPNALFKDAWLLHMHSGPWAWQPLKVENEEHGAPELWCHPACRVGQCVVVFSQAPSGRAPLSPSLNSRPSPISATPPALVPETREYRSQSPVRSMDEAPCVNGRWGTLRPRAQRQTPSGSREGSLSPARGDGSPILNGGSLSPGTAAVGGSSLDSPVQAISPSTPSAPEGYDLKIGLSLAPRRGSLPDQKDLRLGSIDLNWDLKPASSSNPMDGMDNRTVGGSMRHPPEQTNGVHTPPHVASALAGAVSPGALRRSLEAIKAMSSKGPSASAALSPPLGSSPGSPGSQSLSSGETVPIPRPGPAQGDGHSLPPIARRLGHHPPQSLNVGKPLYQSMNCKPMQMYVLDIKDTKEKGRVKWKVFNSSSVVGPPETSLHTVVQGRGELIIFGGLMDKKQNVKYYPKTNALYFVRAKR
UniProt P39748, whole entry, looked up: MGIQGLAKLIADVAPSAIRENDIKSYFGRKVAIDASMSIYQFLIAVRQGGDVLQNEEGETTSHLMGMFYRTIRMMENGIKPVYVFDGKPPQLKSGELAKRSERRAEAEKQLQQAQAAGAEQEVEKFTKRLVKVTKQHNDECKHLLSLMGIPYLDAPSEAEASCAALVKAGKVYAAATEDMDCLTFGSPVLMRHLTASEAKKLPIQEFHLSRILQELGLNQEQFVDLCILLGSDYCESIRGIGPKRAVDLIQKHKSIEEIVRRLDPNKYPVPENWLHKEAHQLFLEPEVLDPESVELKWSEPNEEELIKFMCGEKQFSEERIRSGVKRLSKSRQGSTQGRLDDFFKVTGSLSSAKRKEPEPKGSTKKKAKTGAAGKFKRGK
UniProt P07954: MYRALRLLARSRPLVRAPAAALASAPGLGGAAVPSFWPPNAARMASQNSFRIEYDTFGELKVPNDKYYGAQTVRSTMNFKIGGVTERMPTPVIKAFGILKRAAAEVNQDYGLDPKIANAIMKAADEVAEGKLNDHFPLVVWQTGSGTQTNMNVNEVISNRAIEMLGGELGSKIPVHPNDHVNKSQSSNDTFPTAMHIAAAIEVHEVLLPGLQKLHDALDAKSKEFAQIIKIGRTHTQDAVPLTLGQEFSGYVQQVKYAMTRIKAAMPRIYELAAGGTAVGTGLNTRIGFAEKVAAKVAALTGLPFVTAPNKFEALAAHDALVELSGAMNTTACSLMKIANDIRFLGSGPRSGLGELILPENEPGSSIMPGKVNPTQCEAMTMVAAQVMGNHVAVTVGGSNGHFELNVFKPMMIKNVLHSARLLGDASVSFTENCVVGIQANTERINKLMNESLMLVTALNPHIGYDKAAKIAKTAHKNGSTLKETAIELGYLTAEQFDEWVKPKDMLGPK
UniProt Q92913: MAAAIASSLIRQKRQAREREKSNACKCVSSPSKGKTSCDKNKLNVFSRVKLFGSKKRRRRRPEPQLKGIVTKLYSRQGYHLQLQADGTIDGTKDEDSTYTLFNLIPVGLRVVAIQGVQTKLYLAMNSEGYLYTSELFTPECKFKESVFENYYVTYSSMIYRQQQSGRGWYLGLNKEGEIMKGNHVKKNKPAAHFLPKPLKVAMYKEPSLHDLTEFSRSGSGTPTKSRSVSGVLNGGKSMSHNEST

Experiments:
Assay in all cases: log2 fold change, soluble protein after heating vs DMSO (PISA); higher = thermal stabilisation; K562 lysate, 10 uM; active = over 0.2 and 3.5 SD of the protein, either way, in both replicates (recomputed)
ibrutinib = compound: C=CC(=O)N1CCC[C@@H](n2nc(-c3ccc(Oc4ccccc4)cc3)c3c(N)ncnc32)C1 [ibrutinib]
Summary of the method: (§1)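 Quantification was by TMTpro 16plex LC-MS/MS with equalised channel sums, applied to the supernatant after 21,000xg for 90 min. Samples were crude K562 extract at 1 mg/mL protein in PBS pH 7.4 with 1 mM MgCl2, treated with 10 μM compound for 30 min, heated for 3 min across 48°C-58°C, pooled and brought to 0.5% NP-40 at 4°C. Values are log-two fold changes in thermal stability relative to solvent controls, from duplicates.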

[1] = compound: CC(=O)c1cnc2ccc(-c3cc(Cl)c(O)c(Cl)c3)nc2c1N[C@H]1CC[C@H](CN(C)C)CC1
Summary of the method: as §1

ralimetinib = compound: CC(C)(C)Cn1c(N)nc2ccc(-c3[nH]c(C(C)(C)C)nc3-c3ccc(F)cc3)nc21 [ralimetinib]
Summary of the method: as §1

[2] = compound: CC(C)(O)CC(=O)NCCn1ccc2ncnc(Nc3ccc(Oc4cccc(C(F)(F)F)c4)c(Cl)c3)c21
Summary of the method: as §1

[3] = compound: CC(C)C1=C2N=C(C=C(N2N=C1)NCC3=CC=CC=C3)NCCCCCCN
Summary of the method: as §1

[4] = compound: CC1=C(C(CC(=O)N1)C2=CC=C(C=C2)C(F)(F)F)C(=O)NC3=C(C=C4C(=C3)C=NN4)F
Summary of the method: as §1

[5] = compound: CC1=C(C2=C(C=C1)C(=O)C3=CC=CC=C3N2CCCN)C
Summary of the method: as §1

[6] = compound: CC1=C(C=C(C=C1)NC(=O)C2=CC(=CC=C2)C(C)(C)C#N)NC3=CC4=C(C=C3)N=CN(C4=O)C
Summary of the method: as §1

[7] = compound: CC1=C(C=C(C=C1)NC(=O)C2=CC(=CC=C2)N(C)C)NC(=O)C3=CC=C(C=C3)O
Summary of the method: as §1

[8] = compound: CC1=CC=C(C=C1)SC2=C3C=C(SC3=CN=C2)C(=O)N
Summary of the method: as §1

Target	log2 fold change (ibrutinib)	log2 fold change [1]	log2 fold change (ralimetinib)	log2 fold change [2]	log2 fold change [3]	log2 fold change [4]	log2 fold change [5]	log2 fold change [6]	log2 fold change [7]	log2 fold change [8]
FBL (UniProt P22087)	inactive: -0.018	inactive: -0.019	inactive: -0.003	inactive: -0.009	inactive: 0.041	inactive: -0.056	inactive: -0.048	inactive: 0.01	inactive: 0.053	inactive: -0.004
FNBP1 (UniProt Q96RU3)	inactive: -0.131	inactive: 0.028	inactive: 0.034	inactive: 0.037	inactive: 0.036	inactive: -0.102	inactive: -0.068	inactive: -0.074	inactive: -0.021	inactive: 0.025
FBXO22 (UniProt Q8NEZ5)	inactive: -0.03	inactive: 0.017	inactive: 0.003	inactive: -0.06	inactive: -0.078	inactive: -0.026	inactive: -0.006	inactive: 0.016	inactive: 0	inactive: -0.014
FIGNL1 (UniProt Q6PIW4)	inactive: 0	inactive: 0.063	inactive: 0.04	inactive: 0.022	inactive: -0.006	inactive: -0.067	inactive: 0.008	inactive: -0.002	inactive: 0.02	inactive: 0.037
FLVCR1 (UniProt Q9Y5Y0)	inactive: -0.019	inactive: 0.016	inactive: -0.019	inactive: -0.013	inactive: -0.028	inactive: -0.169	inactive: -0.013	inactive: -0.014	inactive: 0.023	inactive: -0.019
FDX1 (UniProt P10109)	inactive: 0.06	inactive: -0.03	inactive: -0.021	inactive: 0.019	inactive: -0.08	inactive: 0.034	inactive: -0.038	inactive: 0.123	inactive: -0.002	inactive: -0.013
FKBP4 (UniProt Q02790)	inactive: -0.017	inactive: -0.011	inactive: 0.004	inactive: 0	inactive: -0.01	inactive: -0.012	inactive: 0.027	inactive: -0.011	inactive: -0.009	inactive: 0.005
FBXL8 (UniProt Q96CD0)	inactive: 0.046	inactive: -0.007	inactive: 0.015	inactive: -0.103	inactive: -0.025	inactive: 0.004	inactive: -0.044	inactive: 0.027	inactive: 0.003	inactive: -0.063
FCHO2 (UniProt Q0JRZ9)	inactive: 0.052	inactive: -0.005	inactive: 0.04	inactive: -0.008	inactive: -0.004	inactive: 0.052	inactive: -0.082	inactive: -0.009	inactive: -0.003	inactive: 0.011
FHOD1 (UniProt Q9Y613)	inactive: 0.001	inactive: 0.03	inactive: 0.041	inactive: -0.019	inactive: -0.002	inactive: -0.006	inactive: 0.006	inactive: 0.003	inactive: 0.025	inactive: -0.004
FBXW9 (UniProt Q5XUX1)	inactive: -0.023	inactive: 0.008	inactive: 0.01	inactive: -0.05	inactive: -0.027	inactive: -0.034	inactive: -0.009	inactive: 0.049	inactive: 0.054	inactive: -0.03
FBXO42 (UniProt Q6P3S6)	inactive: 0.021	inactive: -0.01	inactive: -0.002	inactive: 0	inactive: 0.006	inactive: 0.022	inactive: -0.042	inactive: -0.011	inactive: 0.04	inactive: 0.061
FEN1 (UniProt P39748)	inactive: 0.025	inactive: 0.026	inactive: 0.063	inactive: -0.034	inactive: 0.022	inactive: -0.016	inactive: 0.022	inactive: 0.002	inactive: 0.022	inactive: 0.039
FMR1 (UniProt Q06787)	inactive: -0.046	inactive: -0.017	inactive: 0.032	inactive: -0.033	inactive: -0.089	inactive: 0.026	inactive: -0.019	inactive: -0.085	inactive: 0.06	inactive: 0.003
FH (UniProt P07954)	inactive: -0.003	inactive: 0.008	inactive: -0.026	inactive: -0.005	inactive: -0.011	inactive: -0.036	inactive: 0.029	inactive: -0.002	inactive: 0.005	inactive: 0.008
FECH isoform 2 (UniProt P22830)	inactive: 0.091	inactive: 0.104	inactive: -0.034	inactive: 0.504	inactive: 0.327	inactive: -0.263	inactive: 0.287	inactive: 0.748	inactive: 0.028	active: -1.11
FER (UniProt P16591)	inactive: 0.103	inactive: -0.121	inactive: 0.036	inactive: 0.022	inactive: -0.209	inactive: 0.305	inactive: -0.099	inactive: -0.063	inactive: 0.038	inactive: -0.139
FDXR isoform 7 (UniProt P22570)	inactive: 0.002	inactive: 0.007	inactive: 0.028	inactive: 0.043	inactive: -0.007	inactive: -0.004	inactive: -0.035	inactive: -0.038	inactive: 0.046	inactive: 0.004
FGF13 isoform 3 (UniProt Q92913)	inactive: -0.013	inactive: -0.016	inactive: 0.019	inactive: -0.057	inactive: 0.001	inactive: -0.011	inactive: 0.001	inactive: -0.008	inactive: 0.145	inactive: -0.007

Part of the list above, set out differently.

| Target | log2 fold change (ibrutinib) | log2 fold change [1] | log2 fold change (ralimetinib) | log2 fold change [2] | log2 fold change [3] | log2 fold change [4] | log2 fold change [5] | log2 fold change [6] | log2 fold change [7] | log2 fold change [8] |
| --- | --- | --- | --- | --- | --- | --- | --- | --- | --- | --- |
| FLVCR1 (UniProt Q9Y5Y0) | inactive: -0.019 | inactive: 0.016 | inactive: -0.019 | inactive: -0.013 | inactive: -0.028 | inactive: -0.169 | inactive: -0.013 | inactive: -0.014 | inactive: 0.023 | inactive: -0.019 |
| FDX1 (UniProt P10109) | inactive: 0.06 | inactive: -0.03 | inactive: -0.021 | inactive: 0.019 | inactive: -0.08 | inactive: 0.034 | inactive: -0.038 | inactive: 0.123 | inactive: -0.002 | inactive: -0.013 |
